Test results taken from patent publication US20240218022A1, “ANTI-VISTA MACROCYCLIC PEPTIDES AND COMPOSITIONS” (BRISTOL-MYERS SQUIBB COMPANY, priority 2022, published 2024).
Where two headings read alike, the source gives them in different places. At least one compound was matched to its structure with a doubt left. Starred links: 1 amine or outer side, 2 acyl side, 3 side chain; linkers in the order of their positions; H or OH if unused. Positions of bridges follow the written chain, without caps; N, C: chain ends. Non-standard residues stand in square brackets, D forms with d. Residues, ends and D or L forms follow the SMILES beside them. 2Nal = N[C@@H](Cc1ccc2ccccc2c1)C(=O)O; βAsp = O=C(O)[C@H](CC(=O)[*:2])N[*:1]; NMeT = CN[C@H](C(=O)O)[C@@H](C)O; NMeL = CN[C@@H](CC(C)C)C(=O)O; Ahp(2) = CCCCC[C@H](N)C(=O)O; Tle = CC(C)(C)[C@H](N)C(=O)O; Pip = O=C(O)[C@@H]1CCCCN1; NHexGly = CCCCCCNCC(=O)O; Nle = CCCC[C@H](N)C(=O)O; Aun = NCCCCCCCCCCC(=O)O; AEEA = NCCOCCOCC(=O)O

Biological target: T1, mouse VISTA (mVISTA) (Mus musculus, UniProt Q9D659)
T1 construct: expressed in transfected cells; host or cells: Human embryonic kidney 293T cells
T1 sequence (Q9D659 33-308): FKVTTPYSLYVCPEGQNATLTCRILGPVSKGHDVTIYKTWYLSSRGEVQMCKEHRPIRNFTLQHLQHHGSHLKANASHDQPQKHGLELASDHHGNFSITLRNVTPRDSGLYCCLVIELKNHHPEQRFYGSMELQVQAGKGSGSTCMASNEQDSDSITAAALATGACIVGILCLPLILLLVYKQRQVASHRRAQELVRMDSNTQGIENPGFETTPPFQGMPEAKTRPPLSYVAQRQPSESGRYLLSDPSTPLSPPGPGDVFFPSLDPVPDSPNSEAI
Test: Cell-Based Binding High-Content Assay For mVISTA (HC CBA mVISTA)
How it was run: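 This high-content binding assay uses HEK293T cells expressing murine VISTA, measuring displacement of 2 nM biotinylated peptide by fluorescent streptavidin imaging. IC50 values come from four-parameter logistic fitting.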

| Structure (SMILES) | IC50 (read-out: HC CBA mVISTA IC50) [nM] | IC50 (cell-based binding high-content assay, mVISTA, read-out: HC CBA miPr ISTA IC50) [nM] |
| --- | --- | --- |
| CCCCCCN1CC(=O)N[C@@H](Cc2ccc(O)cc2)C(=O)N[C@@H](CC(C)C)C(=O)N[C@@H](CC(N)=O)C(=O)N[C@@H](CCCNC(=N)N)C(=O)N[C@@H](CC(C)C)C(=O)N[C@@H](CCCCC)C(=O)N2CCC[C@H]2C(=O)N[C@@H](C(C)C)C(=O)N[C@@H](C(C)C)C(=O)N[C@H](C(=O)NCC(=O)N[C@@H](CC(=O)NCCOCCOCC(=O)N[C@@H](CC(=O)O)C(=O)NCCOCCOCC(=O)NCCCCCCCCCCC(=O)O)C(=O)O)CSCC(=O)N[C@@H](Cc2ccccc2)C(=O)N[C@@H](Cc2ccc(O)cc2)C(=O)N[C@@H](CC(=O)O)C1=O [compound 2106] ({CH2CO}-FYD[NHexGly]YLNRL[Ahp(2)]PVVCG[βAsp][AEEA]D[AEEA][Aun]-OH; thioether N-14) | 18 | – |
| CCCCCCN1CC(=O)N[C@@H](Cc2ccc(O)cc2)C(=O)N[C@@H](CC(C)C)C(=O)N[C@@H](CC(N)=O)C(=O)N[C@@H](CCCNC(=N)N)C(=O)N(C)[C@@H]([C@@H](C)O)C(=O)N[C@@H](CCCCC)C(=O)N2CCC[C@H]2C(=O)N[C@@H](C(C)(C)C)C(=O)N[C@@H](CC(=O)O)C(=O)N[C@H](C(=O)N[C@@H](CC(=O)NCCOCCOCC(=O)N[C@@H](CC(=O)O)C(=O)NCCOCCOCC(=O)NCCCCCCCCCCC(=O)O)C(=O)O)CSCC(=O)N[C@@H](Cc2ccccc2)C(=O)N[C@@H](Cc2ccc(O)cc2)C(=O)N[C@@H](CC(=O)O)C1=O [compound 2038] ({CH2CO}-FYD[NHexGly]YLNR[NMeT][Ahp(2)]P[Tle]DC[βAsp][AEEA]D[AEEA][Aun]-OH; thioether N-14) | – | 34.1 |
| CCCCCCN1CC(=O)N[C@@H](Cc2ccc(O)cc2)C(=O)N[C@@H](CCCC)C(=O)N[C@@H](CC(N)=O)C(=O)N[C@@H](CCCNC(=N)N)C(=O)N(C)[C@@H](CC(C)C)C(=O)N[C@@H](CCCCC)C(=O)N2CCC[C@H]2C(=O)N[C@@H](C(C)C)C(=O)N[C@@H](CC(=O)O)C(=O)N[C@H](C(=O)N[C@@H](CC(=O)NCCOCCOCC(=O)NCCCCCCCCCCC(=O)O)C(=O)O)CSCC(=O)N[C@@H](Cc2ccccc2)C(=O)N[C@@H](Cc2c[nH]c3ccccc23)C(=O)N[C@@H](CC(=O)O)C1=O [Example 2155] ({CH2CO}-FWD[NHexGly]Y[Nle]NR[NMeL][Ahp(2)]PVDC[βAsp][AEEA][Aun]-OH; thioether N-14) | 17.1 | – |

The remaining lines, values ahead:

| IC50 (read-out: HC CBA mVISTA IC50) [nM] | IC50 (cell-based binding high-content assay, mVISTA, read-out: HC CBA miPr ISTA IC50) [nM] | Structure (SMILES) |
| --- | --- | --- |
| 12.6 | – | CCCCCCN1CC(=O)N[C@@H](Cc2ccc(O)cc2)C(=O)N[C@@H](CCCCC)C(=O)NCC(=O)N[C@@H](CCCNC(=N)N)C(=O)N[C@@H](CC(C)C)C(=O)N[C@@H](CCCCC)C(=O)N2CCCC[C@H]2C(=O)N[C@@H](C(C)C)C(=O)N[C@@H](CO)C(=O)N[C@H](C(=O)NCC(=O)O)CSCC(=O)N[C@@H](Cc2ccccc2)C(=O)N[C@@H](Cc2ccc(O)cc2)C(=O)N[C@@H](CC(=O)O)C1=O [compound 1154] ({CH2CO}-FYD[NHexGly]Y[Ahp(2)]GRL[Ahp(2)][Pip]VSCG-OH; thioether N-14) |
| 25.6 | – | CCCCCCN1CC(=O)N[C@@H](Cc2ccc(O)cc2)C(=O)N[C@@H](CCCC)C(=O)N[C@@H](CC(N)=O)C(=O)N[C@@H](CCCNC(=N)N)C(=O)N(C)[C@@H](CC(C)C)C(=O)N[C@@H](CCCCC)C(=O)N2CCC[C@H]2C(=O)N[C@@H](C(C)C)C(=O)N[C@@H](CC(=O)O)C(=O)N[C@H](C(=O)N[C@@H](CC(=O)NCCOCCOCC(=O)NCCCCCCCCCCC(=O)O)C(=O)O)CSCC(=O)N[C@@H](Cc2ccc3ccccc3c2)C(=O)N[C@@H](Cc2ccc(O)cc2)C(=O)N[C@@H](CC(=O)O)C1=O [Example 2156] ({CH2CO}-[2Nal]YD[NHexGly]Y[Nle]NR[NMeL][Ahp(2)]PVDC[βAsp][AEEA][Aun]-OH; thioether N-14) |
| 36.8 | – | CCCCCCN1CC(=O)N[C@@H](Cc2ccc(O)cc2)C(=O)N[C@@H](CC(C)C)C(=O)N[C@@H](CC(N)=O)C(=O)N[C@@H](CCCNC(=N)N)C(=O)N[C@@H](CC(C)C)C(=O)N[C@@H](CCCCC)C(=O)N2CCC[C@H]2C(=O)N[C@@H](C(C)C)C(=O)N(CCCCCC)CC(=O)N[C@H](C(=O)NCC(=O)O)CSCC(=O)N[C@@H](Cc2ccccc2)C(=O)N[C@@H](Cc2ccc(O)cc2)C(=O)N[C@@H](CC(=O)O)C1=O [compound 1110] ({CH2CO}-FYD[NHexGly]YLNRL[Ahp(2)]PV[NHexGly]CG-OH; thioether N-14) |
